# Data source: PubChem BioAssay AID1259405 (NCATS, 2018)
# Purpose: 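Mouse-designed siRNAs used to find CHO productivity engineering targets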 (primary screen)
# Cell system: Chinese hamster CHO-K1 ovary cells with stable secreted eGFP expression
# Reagents: single siRNA against mouse genes, 0.8 pmol siRNA per well (2 µl of 400 nM stock)
# Timing: 3 days
# Measurement: 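Percent of the per-plate non-targeting control median for intracellular GFP per well by laser scanning cytometry and for cell viability by ATP luminescence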
# Direction: GFP, % of control: higher = more GFP per well, higher productivity; viability (ATP), % of control: higher = more viable cells (more ATP)
# Call rule: 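a knock-down is called active if GFP reaches 120% or more of non-targeting control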
# Shown is a random part of about 50,000 reagents. Over the whole deposit, about 4,000 (8%) are marked active. 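Mouse siRNA library applied to hamster cells; one well for each siRNA.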 The numbers tell different reagents against one gene apart. Reagent sequences are not shown.
Target gene,reagent,"GFP, % of control","viability (ATP), % of control",call
Or13c7,1,24.6,32.5,inactive
Or13c7,2,73.2,70.4,inactive
Or13c7,3,31.4,45.8,inactive
Cryzl1,1,77.3,89.4,inactive
Cryzl1,2,85.5,76.4,inactive
Cryzl1,3,42.3,53.5,inactive
Snx19,1,131,114,active
Snx19,2,100,78.3,inactive
Snx19,3,75.8,86,inactive
Pelp1,1,106,79,inactive
Pelp1,2,99.6,82.6,inactive
Pelp1,3,73.2,56.5,inactive
Dmtf1,1,99.9,110,inactive
Dmtf1,2,69.3,71.1,inactive
Nrtn,1,94.3,70.1,inactive
Nrtn,2,67.6,71.8,inactive
Nrtn,3,64.9,78.7,inactive
Egln3,1,79.1,91.8,inactive
Egln3,2,84.6,80.7,inactive
Egln3,3,58.6,57.8,inactive
Top1mt,1,35.8,63.4,inactive
Top1mt,2,56.3,68.2,inactive
Top1mt,3,73.6,68.5,inactive
Ano9,1,90.8,64.8,inactive
Ano9,2,95.9,91.5,inactive
Ano9,3,148,131,active
Slc25a5,1,86.6,93.2,inactive
Slc25a5,2,85.4,71.7,inactive
Slc25a5,3,29.5,52.5,inactive
Lipt2,1,83.7,79.6,inactive
Lipt2,2,68.3,80,inactive
Lipt2,3,69.6,77.9,inactive
Map2k1,1,112,79.5,inactive
Samt3,1,90,88.8,inactive
Samt3,2,115,87.4,inactive
Samt3,3,61.5,71.3,inactive
Lhx4,1,31.5,56.6,inactive
Lhx4,2,60.1,69.3,inactive
Lhx4,3,61.2,80.1,inactive
Hexd,1,81.5,65.5,inactive
Hexd,2,75.2,76.8,inactive
Hexd,3,112,88.2,inactive
Clk3,1,158,86.1,active
Clk3,2,45.4,63.5,inactive
Clk3,3,71,70.8,inactive
Yif1a,1,30.5,50,inactive
Yif1a,2,61.1,76.2,inactive
Yif1a,3,77.6,82.5,inactive
Crtc1,1,80.3,54.8,inactive
Crtc1,2,65.3,77.8,inactive
Crtc1,3,78.3,75.1,inactive
Tmem11,1,55.6,97.6,inactive
Tmem11,2,80.4,77.7,inactive
Defb8,1,37.2,51.9,inactive
Defb8,2,84.1,96.7,inactive
Defb8,3,93.2,85.5,inactive
Brwd1,1,85,85.1,inactive
Brwd1,2,99.7,92.7,inactive
Brwd1,3,94.3,83,inactive
Trmt6,1,81,84,inactive
Trmt6,2,62.3,77.9,inactive
Trmt6,3,83.7,62.6,inactive
C230013L11Rik,1,67.7,69.8,inactive
C230013L11Rik,2,82.7,88.3,inactive
C230013L11Rik,3,88.3,137,inactive
Or4f59,1,78.2,68.4,inactive
Or4f59,2,40.3,32.9,inactive
Or4f59,3,64.1,109,inactive
Il15,1,73.3,80.5,inactive
Il15,2,68.2,56.4,inactive
Bco2,1,72.1,138,inactive
Bco2,2,114,64.2,inactive
Bco2,3,89.1,77.6,inactive
Slc7a10,1,94.1,62.5,inactive
Slc7a10,2,101,78.8,inactive
Slc7a10,3,102,78.2,inactive
Icam1,1,76.1,70.3,inactive
Icam1,2,80.2,66.9,inactive
Kif18b,1,38.8,53.1,inactive
Kif18b,2,63.2,87.2,inactive
Kif18b,3,58.8,79.6,inactive
Pycr2,1,78.5,80.6,inactive
Pycr2,2,119,54.1,inactive
Pycr2,3,76.4,79.4,inactive
Mapkap1,1,80.7,60.9,inactive
Mapkap1,2,46.4,54,inactive
Mapkap1,3,108,97.4,inactive
Znrf4,1,58.7,79.3,inactive
Znrf4,2,85.3,91.8,inactive
Znrf4,3,97.1,104,inactive
Ldhd,1,116,83.6,inactive
Ldhd,2,97.3,49.6,inactive
Ldhd,3,85.9,74.3,inactive
1810030O07Rik,1,36.5,42,inactive
1810030O07Rik,2,115,81.2,inactive
1810030O07Rik,3,63.9,78.9,inactive
Or2ag16,1,77.1,61.3,inactive
Or2ag16,2,89.7,64,inactive
Or2ag16,3,53,69.3,inactive
Rpa1,1,75.3,97.2,inactive
Rpa1,2,104,118,inactive
Poglut3,1,48.9,34.8,inactive
Poglut3,2,30.1,26.7,inactive
Poglut3,3,113,101,inactive
Adck2,1,76.7,73.7,inactive
Adck2,2,115,99.4,inactive
Adck2,3,109,133,inactive
